# PubChem BioAssay AID1224830 | NIAID | 2016
# Assay: 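Host factors that control LPS-induced TNF expression in human macrophages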 (primary screen)
# Cell system: human THP-1 monocytic leukaemia cells, TNF dual-luciferase reporter clone, PMA-differentiated to macrophage-like cells
# Knock-down reagent: siRNA pool against human genes, 50 nM
# Timing: LPS for 4 h, given about 3 days after siRNA transfection
# Challenge: bacterial LPS (TLR4 ligand), 10 ng/ml
# Measured: 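Ratio of firefly to renilla light, scaled to the plate median and expressed as a robust z-score per replicate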
# Reading the numbers: TNF reporter robust z-score: higher = stronger TNF reporter response to LPS
# Call rule: 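a well is active when its z-score exceeds 2.8 or falls below -1.5; control wells carry no call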
# The deposit covers about 18,000 reagents; below is an unselected part. About 2,900 of all reagents (16%) count as active. 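Calls are made per well; low scores hint the gene aids the LPS response, high scores that it dampens it.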 Repeated entries: four replicate wells of each siRNA pool. No sequences are given here.
gene,TNF reporter robust z-score,activity call
DCN,-0.14,inactive
DCN,0,inactive
DCN,-0.35,inactive
DCN,0.56,inactive
ENPP6,-1.64,active
ENPP6,-1.58,active
ENPP6,-2.13,active
ENPP6,-2.06,active
TUSC3,-0.52,inactive
TUSC3,0.43,inactive
TUSC3,0.44,inactive
TUSC3,0.45,inactive
TPH1,0,inactive
TPH1,0.8,inactive
TPH1,-0.94,inactive
TPH1,0.21,inactive
COL5A3,1.42,inactive
COL5A3,1.13,inactive
COL5A3,0.46,inactive
COL5A3,1.38,inactive
H3C10,0.34,inactive
H3C10,-0.4,inactive
H3C10,-0.28,inactive
H3C10,-0.21,inactive
LMX1B,2.67,inactive
LMX1B,-0.29,inactive
LMX1B,0.05,inactive
LMX1B,-0.99,inactive
ZNF320,3,active
ZNF320,3.68,active
ZNF320,1.27,inactive
ZNF320,2.55,inactive
GLUL,1.24,inactive
GLUL,1.43,inactive
GLUL,0.31,inactive
GLUL,1.34,inactive
PLAAT4,0.41,inactive
PLAAT4,1.29,inactive
PLAAT4,-1.18,inactive
PLAAT4,-0.17,inactive
HMCES,1.47,inactive
HMCES,3.55,active
HMCES,2.85,active
HMCES,2.16,inactive
SMG9,2.61,inactive
SMG9,1.53,inactive
SMG9,0.88,inactive
SMG9,2.48,inactive
